The target of test [1] is T1, Gal4 binding domain GBD-AC40 (S. cerevisiae) (UniProt P07703).
T1 sequence: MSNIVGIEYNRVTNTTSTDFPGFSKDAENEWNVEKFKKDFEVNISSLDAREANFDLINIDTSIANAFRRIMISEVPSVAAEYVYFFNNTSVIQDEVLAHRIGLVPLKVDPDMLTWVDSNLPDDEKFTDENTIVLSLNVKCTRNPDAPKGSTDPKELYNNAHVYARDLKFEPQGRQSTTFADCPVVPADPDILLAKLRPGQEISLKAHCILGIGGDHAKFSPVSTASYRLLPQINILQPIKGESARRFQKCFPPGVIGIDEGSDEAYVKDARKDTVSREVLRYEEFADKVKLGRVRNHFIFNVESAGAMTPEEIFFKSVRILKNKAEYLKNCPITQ
Kind of test: two-hybrid.

In test [2] the target is T2, AC40-Twin-Strep-tag (S. cerevisiae) (UniProt P07703).
T2 sequence: T1 sequence
Kind of test: co-IP.

Results are given in words; binding and its absence hold for the method and conditions named. A result given as binding can be weak or reduced; the word gives no strength. For some assays here: In cells and extracts the contact can be indirect. For some assays here: Where a sequence is shown, tags or fusion partners need not be part of it.

For the substance “GAD-IN5 (WT Ty5 integrase) (S. cerevisiae)”, the binding entry in test [1] is listed as “no binding”. Consider “GAD-IN1_(578-635) M619A (S. cerevisiae) (domain or fragment)”, for which the binding result in test [1] was “no binding”. Consider “GAD-IN1_(578-635) N618A (S. cerevisiae) (domain or fragment)”, for which the binding entry in test [1] is given as “binds”. Consider “GAD-IN1_(578-635) VS_(609-610)AA (S. cerevisiae) (domain or fragment)”, for which the binding entry in test [1] is recorded as “binds”.

Regarding “Gal4 activating domain GAD-IN1_(578-635) fusion protein (S. cerevisiae) (domain or fragment)”, in test [1], the binding entry was “binds”. Turning to “GAD-IN1_(578-635) S621A (S. cerevisiae) (domain or fragment)”, the binding result in test [1] is “no binding”.

“GAD-IN1_(578-635) R620A (S. cerevisiae) (domain or fragment)”: the binding entry in test [1] was “no binding”.

With “GAD-IN5 lacking TD5 (IN5_(∆TD5)) (S. cerevisiae)”, in test [1], the binding result is reported as “no binding”. Turning to “GAD-IN1_(578-635) L622A (S. cerevisiae) (domain or fragment)”, the binding entry in test [1] was “no binding”. With “IN1-EPEA (Glu-Pro-Glu-Ala) tagged Ty1 integrase, WT (S. cerevisiae)”, the binding result in test [2] is given as “binds”. In the case of “GAD-IN1_(578-635) K617A (S. cerevisiae) (domain or fragment)”, the binding result in test [1] was “no binding”. The same measure, in the same setting: next, “GAD-IN1_(1-578) (S. cerevisiae) (domain or fragment)”: “no binding”. On the same count and under the same terms, next, “GAD-IN1_(578-635) E623A (S. cerevisiae) (domain or fragment)”: “binds”. Take “GAD fused to the entire bNLS sequence (GAD-IN_(596-630)) (S. cerevisiae) (domain or fragment)”: the binding result in test [1] was “binds”.

Values taken from publication doi:10.1101/2019.12.18.879569.
